{
  "source": "patent US20090082249A1",
  "about": "“NUTRITIONAL SUPPLEMENT FOR A CATEGORY OF HIV PATIENTS” (N.V. Nutricia, priority 2005, published 2009)",
  "system": "intestinal tight junction permeability",
  "assay": "Inflammatory mediated intestinal tight junction permeability",
  "note": "At least one structure is not confirmed: it was looked up by name or label, or the drawing left a doubt.",
  "data": [
    {"smiles": "CC/C=C\\C/C=C\\C/C=C\\C/C=C\\C/C=C\\CCCC(=O)O", "note": "[EPA, eicosapentaenoic acid]", "values": [
      {"measurement": "reduction of inflammatory mediated intestinal tight junction permeability", "result": "effectively reduce"}
    ]}
  ]
}
